Source: PubChem BioAssay AID1259405 (NCATS, 2018)

Screen: 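Knock-downs that lift recombinant protein yield in hamster ovary cells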 (primary screen)
Cells: Chinese hamster CHO-K1 ovary cells with stable secreted eGFP expression
Knock-down reagent: single siRNA against mouse genes, 0.8 pmol siRNA per well (2 µl of 400 nM stock)
Timing: 3 days
Detection: 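Per-well intracellular GFP measured by laser scanning cytometry, plus viability from ATP luminescence, each relative to plate median of non-targeting control wells, in %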
Reading the numbers: GFP, % of control: higher = more GFP per well, higher productivity; viability (ATP), % of control: higher = more viable cells (more ATP)
Rule for the call: 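Called active when intracellular GFP, relative to negative control, is at or above 120%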
Here is an unselected part of about 50,000 deposited reagents. In the full data, about 4,000 (8%) got an active call. 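Mouse siRNA library applied to hamster cells; one well for each siRNA.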 Reagents against one gene are numbered here. Reagent sequences are not shown.

The opening 2 entries as a preview:
| gene knocked down | reagent | GFP, % of control | viability (ATP), % of control | activity call |
| --- | --- | --- | --- | --- |
| Lgals6 (lectin, galactose binding, soluble 6) | 1 | 39.4 | 42.5 | inactive |
| Lgals6 (lectin, galactose binding, soluble 6) | 2 | 42.1 | 34.7 | inactive |

Results, repeating the preview:
| gene knocked down | reagent | GFP, % of control | viability (ATP), % of control | activity call |
| --- | --- | --- | --- | --- |
| Lgals6 (lectin, galactose binding, soluble 6) | 1 | 39.4 | 42.5 | inactive |
| Lgals6 (lectin, galactose binding, soluble 6) | 2 | 42.1 | 34.7 | inactive |
| Lgals6 (lectin, galactose binding, soluble 6) | 3 | 74.3 | 54 | inactive |
| Usp47 (ubiquitin specific peptidase 47) | 1 | 26.9 | 39.1 | inactive |
| Usp47 (ubiquitin specific peptidase 47) | 2 | 66 | 38.4 | inactive |
| Usp47 (ubiquitin specific peptidase 47) | 3 | 116 | 68.3 | inactive |
| Osbpl9 (oxysterol binding protein-like 9) | 1 | 66.6 | 74.1 | inactive |
| Osbpl9 (oxysterol binding protein-like 9) | 2 | 92.9 | 74.9 | inactive |
| Osbpl9 (oxysterol binding protein-like 9) | 3 | 193 | 165 | active |
| Flot1 (flotillin 1) | 1 | 115 | 119 | inactive |
| Flot1 (flotillin 1) | 2 | 83.3 | 81.1 | inactive |
| Cdh12 (cadherin 12) | 1 | 94.8 | 83.3 | inactive |
| Cdh12 (cadherin 12) | 2 | 80.4 | 84.7 | inactive |
| Meis3 (Meis homeobox 3) | 1 | 73.7 | 66.1 | inactive |
| Meis3 (Meis homeobox 3) | 2 | 70.6 | 86.1 | inactive |
| Meis3 (Meis homeobox 3) | 3 | 59.9 | 69.4 | inactive |
| Nnat (neuronatin) | 1 | 71.4 | 74.9 | inactive |
| Nnat (neuronatin) | 2 | 108 | 84.6 | inactive |
| Nnat (neuronatin) | 3 | 67.2 | 68.8 | inactive |
| Msantd5f6 (Myb/SANT DNA binding domain containing 5 family member 6) | 1 | 50.6 | 76.7 | inactive |
| Msantd5f6 (Myb/SANT DNA binding domain containing 5 family member 6) | 2 | 61.2 | 68.9 | inactive |
| Msantd5f6 (Myb/SANT DNA binding domain containing 5 family member 6) | 3 | 67.5 | 54.5 | inactive |
| Iqcg (IQ motif containing G) | 1 | 77.1 | 85 | inactive |
| Iqcg (IQ motif containing G) | 2 | 90.8 | 107 | inactive |
| Iqcg (IQ motif containing G) | 3 | 67.5 | 66.8 | inactive |
| Asic1 (acid-sensing ion channel 1) | 1 | 116 | 52.9 | inactive |
| Asic1 (acid-sensing ion channel 1) | 2 | 66.7 | 79.9 | inactive |
| Asic1 (acid-sensing ion channel 1) | 3 | 78.4 | 74.6 | inactive |
| Dhx15 (DEAH-box helicase 15) | 1 | 75.6 | 76.3 | inactive |
| Dhx15 (DEAH-box helicase 15) | 2 | 22.6 | 15.5 | inactive |
| Dhx15 (DEAH-box helicase 15) | 3 | 74.5 | 77.4 | inactive |
| Or4p7 (olfactory receptor family 4 subfamily P member 7) | 1 | 81 | 63.7 | inactive |
| Or4p7 (olfactory receptor family 4 subfamily P member 7) | 2 | 56.9 | 59.4 | inactive |
| Or4p7 (olfactory receptor family 4 subfamily P member 7) | 3 | 38.9 | 103 | inactive |
